Source: PMC11527346
No constants are given. Whether binding was seen depends on the method and setting. For some assays here: In cells and extracts the contact can be indirect. Some entries that bind do so weakly or less than the wild type.

Protein sequences, listed by entry. Tags and fused reporters are not part of them.
UniProt P15531: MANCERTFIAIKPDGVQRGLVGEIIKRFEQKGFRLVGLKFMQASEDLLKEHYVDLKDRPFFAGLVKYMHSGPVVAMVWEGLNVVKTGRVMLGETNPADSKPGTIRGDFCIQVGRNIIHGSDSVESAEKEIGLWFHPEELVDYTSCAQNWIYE
UniProt Q04207: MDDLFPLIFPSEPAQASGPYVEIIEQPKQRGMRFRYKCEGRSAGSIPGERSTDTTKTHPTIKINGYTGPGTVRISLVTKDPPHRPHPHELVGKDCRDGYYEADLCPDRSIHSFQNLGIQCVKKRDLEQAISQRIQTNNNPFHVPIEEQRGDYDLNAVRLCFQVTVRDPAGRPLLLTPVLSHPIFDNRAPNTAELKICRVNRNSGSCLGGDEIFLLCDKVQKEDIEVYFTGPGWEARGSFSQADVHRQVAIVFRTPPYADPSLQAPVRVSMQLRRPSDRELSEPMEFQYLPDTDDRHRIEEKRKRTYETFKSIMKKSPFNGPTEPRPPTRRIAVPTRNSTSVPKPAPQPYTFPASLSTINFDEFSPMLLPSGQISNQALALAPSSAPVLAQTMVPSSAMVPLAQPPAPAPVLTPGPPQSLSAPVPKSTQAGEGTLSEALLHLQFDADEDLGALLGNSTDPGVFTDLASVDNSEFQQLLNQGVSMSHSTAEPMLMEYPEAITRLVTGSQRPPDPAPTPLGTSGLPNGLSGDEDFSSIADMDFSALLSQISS

Key:
GST-tagged NME1 = GST-tagged NME1 (UniProt P15531); assay: pull-down; 1 μg GST-NME1 (or GST) on glutathione agarose beads, 1 μg recombinant full-length RelA added, without or with 1 μM annealed κB or mutant κB DNA; 25 mM Tris-HCl pH 7.5, 150 mM NaCl, 5% glycerol, 0.1% NP-40, 1 mM DTT; 2 h at 4°C; Western blot; both purified
FLAG-tagged NME1 = FLAG-tagged NME1 (UniProt P15531); assay: co-IP; anti-FLAG M2 beads on whole cell lysate of HEK293T cotransfected with FLAG-NME1 (or empty vector) and HA-RelA; 25 mM Tris-HCl pH 7.5, 150 mM NaCl, 5% glycerol, 1% NP-40, 1 mM DTT; 2 h at 4°C; Western blot

Substance | binding (GST-tagged NME1) | binding (FLAG-tagged NME1)
His-tagged full-length RelA (from UniProt Q04207 1-549) | binds weakly | –
HA-tagged RelA (from UniProt Q04207 1-549) | – | binds
